# Source: PubChem BioAssay AID330 (DTP/NCI, 2004)
# The list shows only some results of the screen, not a fair sample: it is rich in T/C values a quarter to a half above the control, in often repeated tests (any T/C) and in doses without a T/C. Further doses and runs are listed elsewhere. T/C gives the treated animals as a percentage of the vehicle group. Some doses have a count of surviving animals in place of a T/C: the source holds a T/C of zero for them, seemingly a mark for toxic or unscored doses. Some survivor counts are full or nearly so, which does not show that the dose was tolerated: survival well below the control is almost never listed, so the zero probably covers shortened survival too. Counts of survivors are from the toxicity check (mostly the fifth day) where no day follows; animals may have died later. Schedules are NCI's codes, taken here to give the interval after Q, in days (D) or hours (H), and the number of doses after X. For survival time, the PubChem record calls one and a half times the control and up active, and a quarter to a half above the control has no call in these data; cut-offs in other NCI protocols can differ. Some T/C values carry the count of animals alive at the toxicity check (mostly the fifth day); without a count, all were alive then. Counts like (3×) count equal records among those shown. Some doses were run more than once; their values stand side by side, smallest first.
# Test system: P388 leukemia ip, CD2F1 mice, survival T/C
# Assay: NCI In Vivo Anticancer Drug Screen. Data for tumor model P388 Leukemia (intraperitoneal) in CD2F1 (CDF1) mice
# Details: T/C endpoint: median survival time, higher T/C = longer survival
# [1] = dose: 100.0 mg/kg/injection, schedule: Q01DX009 (ip), vehicle: saline
# [2] = dose: 200.0 mg/kg/injection, schedule: Q01DX005 (ip), vehicle: Klucel (hydroxypropylcellulose) (HPC)
# [3] = dose: 400.0 mg/kg/injection, schedule: Q01DX009 (ip), vehicle: saline with Tween-80
# [4] = dose: 100.0 mg/kg/injection, schedule: Q01DX005 (ip), vehicle: saline
# [5] = dose: 200.0 mg/kg/injection, schedule: Q01DX005 (ip), vehicle: saline
# [6] = dose: 50.0 mg/kg/injection, schedule: Q01DX009 (ip), vehicle: distilled water + Tween-80
# [7] = dose: 100.0 mg/kg/injection, schedule: Q01DX009 (ip), vehicle: distilled water + Tween-80
structure (smiles),measurement,setting,value
[CH3][Sn]1([CH3])[O]P(=O)(c2ccccc2)[O]1,survivor count,[1],0 of 6
same,survivor count,"dose: 200.0 mg/kg/injection, schedule: Q01DX009 (ip), vehicle: saline",0 of 6
CC(C)(C)NSc1nc2ccccc2s1,survivor count,"dose: 100.0 mg/kg/injection, schedule: Q04DX003 (ip), vehicle: saline with Tween-80",5 of 6
same,survivor count,"dose: 200.0 mg/kg/injection, schedule: Q04DX003 (ip), vehicle: saline with Tween-80",0 of 6
C/C(=N\Nc1cc(C)nc2cc3c(cc12)OCO3)c1cn(C)n(-c2ccccc2)c1=O,survivor count,[2],2 of 6
CC1CCC(n2cnc3c(=S)nc[nH]c32)O1 (configuration not stated),T/C,"dose: 100.0 mg/kg/injection, schedule: Q01DX009 (ip), vehicle: saline with Tween-80",135 % of control
same,survivor count,[3],5 of 6
CCCCCC(C)N (configuration not stated),survivor count,"dose: 50.0 mg/kg/injection, schedule: Q01DX009 (ip), vehicle: saline",2 of 6
CCN(CC)CCCC(C)n1c2nc(=O)[nH]c(=O)c-2nc2cc(Cl)ccc21 (configuration not stated),survivor count,[4],0 of 6
same,survivor count,[5],0 of 6
N#C/C(=C/c1cccs1)c1ccc(Cl)cc1,survivor count,"dose: 400.0 mg/kg/injection, schedule: Q04DX003 (ip), vehicle: Klucel (hydroxypropylcellulose) (HPC)",6 of 6
COC1NC(=O)Oc2ccccc21 (configuration not stated),T/C,"dose: 200.0 mg/kg/injection, schedule: Q01DX005 (ip), vehicle: saline with Tween-80",131 % of control
same,T/C,"dose: 400.0 mg/kg/injection, schedule: Q01DX005 (ip), vehicle: saline with Tween-80",140 % of control
O=[N+]([O-])c1ccc2[nH]c3cnccc3c2c1,survivor count,"dose: 200.0 mg/kg/injection, schedule: Q01DX009 (ip), vehicle: other",5 of 6
N#Cc1ccc(NN=NCCS(=O)CCCl)cc1 (configuration not stated),T/C,[6],125 % of control
same,T/C,[7],140 % of control
CCOC(=O)Nc1nncs1,T/C,[6],132 % of control
same,T/C,[7],142 % of control
same,survivor count,"dose: 400.0 mg/kg/injection, schedule: Q01DX009 (ip), vehicle: distilled water + Tween-80",2 of 6
CC(C)=CCC/C(C)=C/Cc1ccccc1,T/C,"dose: 200.0 mg/kg/injection, schedule: Q01DX009 (ip), vehicle: saline with Tween-80",127 % of control
same,survivor count,[3],5 of 6
S=C=[N][Sn]([N]=C=S)([c]1ccccc1)[c]1ccccc1.c1ccc2nc(-c3ccc4ccccc4n3)ccc2c1,T/C,"dose: 7.5 mg/kg/injection, schedule: Q01DX005 (ip), vehicle: Klucel (hydroxypropylcellulose) (HPC)",125 % of control [5 of 6 alive] (2×)
same,T/C,"dose: 15.0 mg/kg/injection, schedule: Q01DX005 (ip), vehicle: Klucel (hydroxypropylcellulose) (HPC)",129 [5 of 6 alive] and 135 % of control [5 of 6 alive]
same,survivor count,"dose: 60.0 mg/kg/injection, schedule: Q01DX005 (ip), vehicle: Klucel (hydroxypropylcellulose) (HPC)",0 of 6
same,survivor count,"dose: 120.0 mg/kg/injection, schedule: Q01DX005 (ip), vehicle: Klucel (hydroxypropylcellulose) (HPC)",0 of 6
same,survivor count,"dose: 240.0 mg/kg/injection, schedule: Q01DX005 (ip), vehicle: Klucel (hydroxypropylcellulose) (HPC)",0 of 6
Cc1cc(OCC(=O)N/N=C/c2ccc(N(CCCl)CCCl)cc2)c2ccc(Cl)cc2n1,survivor count,[1],6 of 6
Oc1ccc(Nc2ccnc3cc(Cl)ccc23)cc1CN(CCCl)CCCl,T/C,"dose: 1.1 mg/kg/injection, schedule: Q01DX009 (ip), vehicle: saline",137 % of control
same,T/C,"dose: 1.25 mg/kg/injection, schedule: Q01DX009 (ip), vehicle: saline",139 % of control
same,T/C,"dose: 1.7 mg/kg/injection, schedule: Q01DX009 (ip), vehicle: saline",144 % of control
same,T/C,"dose: 3.75 mg/kg/injection, schedule: Q01DX009 (ip), vehicle: saline",144 % of control
same,T/C,"dose: 5.0 mg/kg/injection, schedule: Q01DX009 (ip), vehicle: saline",130 % of control
same,survivor count,"dose: 10.0 mg/kg/injection, schedule: Q01DX009 (ip), vehicle: saline",5 of 6
CCCCN(CCCC)CC1CC(C(C)(C)C)CCC1O (configuration not stated),survivor count,[2],1 of 6
CC1(C)NC(=O)N(Cc2ccccc2)C1=O,T/C,"dose: 400.0 mg/kg/injection, schedule: Q01DX009 (ip), vehicle: saline",130 % of control [5 of 6 alive]
CCC[C@@H]1[C@@H](CCC)N1C(=N)OCC,survivor count,[4],0 of 6
same,survivor count,[5],0 of 6
